Measurements reported in PubChem BioAssay AID1259308 (NCATS, 2017).
Aim: 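Candidate targets for better recombinant protein yield in mammalian cells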 (primary screen). Cells: human HEK293 embryonic kidney cells stably expressing firefly luciferase (HEK-CMV-Luc2-Hygro). Knock-down reagent: single siRNA against human genes, 0.8 pmol siRNA per well. Timing: 72 h. Detection: 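Reporter luminescence and viable-cell signal on separate replicate plates, given as percent of non-targeting control and median/MAD z-scores, plus per-cell luciferase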. Reading the numbers: total luciferase, z-score and total luciferase, % of control: higher = more reporter protein produced; luciferase per cell, z-score: higher = more reporter output per viable cell. Hit rule: 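An siRNA counts as active if its total luciferase robust z-score exceeds 3; genes with two or more such siRNAs out of three were retested with fresh siRNAs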. Meaning of the calls: active = raised luciferase; inactive = no rise.
Shown is one part, drawn at random, of about 59,000 deposited reagents. In the full data, about 1,510 (2.6%) were called active. 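Calls use total luciferase alone and ignore viability, so some active siRNAs may act by altering cell number.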 Entries without a mark were called inactive. Reagents against one gene are numbered here. Not all columns of the deposit are shown.

gene | reagent no. | total luciferase, z-score | total luciferase, % of control | luciferase per cell, z-score
DNAH10 (GeneID 196385) | 1 | 0.717 | 96.1 | 1.16
DNAH10 (GeneID 196385) | 2 | 5.28 (active) | 187 | 3.93
DNAH10 (GeneID 196385) | 3 | 0.979 | 101 | 1.42
RRBP1 (GeneID 6238) | 1 | 2.07 | 123 | 2.27
RRBP1 (GeneID 6238) | 2 | 0.246 | 86.8 | 0.546
RRBP1 (GeneID 6238) | 3 | 0.0831 | 83.5 | 0.813
ASNSD1 (GeneID 54529) | 1 | 0.287 | 87.6 | -0.196
ASNSD1 (GeneID 54529) | 2 | -0.176 | 78.4 | -0.102
ASNSD1 (GeneID 54529) | 3 | 1.04 | 103 | 0.793
SLC33A1 (GeneID 9197) | 1 | 0.528 | 92.4 | 0.185
SLC33A1 (GeneID 9197) | 2 | -0.372 | 74.5 | -0.27
SLC33A1 (GeneID 9197) | 3 | -1.06 | 60.8 | -1.05
SUSD2P1 (GeneID 729568) | 1 | 0.678 | 95.4 | 0.825
SUSD2P1 (GeneID 729568) | 2 | 0.0239 | 82.4 | 0.867
SUSD2P1 (GeneID 729568) | 3 | -1.28 | 56.3 | -0.36
AGER (GeneID 177) | 1 | -1.1 | 60.1 | -1.09
AGER (GeneID 177) | 2 | 0.995 | 102 | 2.16
AGER (GeneID 177) | 3 | -1.42 | 53.7 | -1.83
CT45A5 (GeneID 441521) | 1 | -0.601 | 69.9 | 0.531
CT45A5 (GeneID 441521) | 2 | 2.16 | 125 | 1.73
CT45A5 (GeneID 441521) | 3 | -0.336 | 75.2 | -0.403
TOMM7 (GeneID 54543) | 1 | -2.46 | 33 | -2.26
TOMM7 (GeneID 54543) | 2 | -1.18 | 58.4 | -0.872
TOMM7 (GeneID 54543) | 3 | 0.944 | 101 | 0.304
ITGA2B (GeneID 3674) | 1 | 0.0421 | 82.7 | 0.892
ITGA2B (GeneID 3674) | 2 | -0.0614 | 80.7 | -0.275
ITGA2B (GeneID 3674) | 3 | -0.682 | 68.3 | -0.752
EVPLL (GeneID 645027) | 1 | -0.968 | 62.6 | -0.627
EVPLL (GeneID 645027) | 2 | 0.967 | 101 | 0.621
EVPLL (GeneID 645027) | 3 | -1.18 | 58.5 | -0.58

Entries above called active (1):
gene | reagent no. | total luciferase, z-score | total luciferase, % of control | luciferase per cell, z-score
DNAH10 (GeneID 196385) | 2 | 5.28 (active) | 187 | 3.93

The results go on.
gene | reagent no. | total luciferase, z-score | total luciferase, % of control | luciferase per cell, z-score
NAA50 (GeneID 80218) | 1 | 1.08 | 103 | 1.12
NAA50 (GeneID 80218) | 2 | 0.753 | 96.9 | 0.0129
NAA50 (GeneID 80218) | 3 | 0.92 | 100 | 1.39
IFNA8 (GeneID 3445) | 1 | -1.57 | 50.7 | -1.12
IFNA8 (GeneID 3445) | 2 | 2.78 | 137 | 1.73
IFNA8 (GeneID 3445) | 3 | 1.16 | 105 | 2.27
TRPA1 (GeneID 8989) | 1 | -0.0388 | 81.1 | -0.361
TRPA1 (GeneID 8989) | 2 | -0.623 | 69.5 | -0.167
TRPA1 (GeneID 8989) | 3 | -0.23 | 77.3 | -0.526
UTP23 (GeneID 84294) | 1 | -2.1 | 40.1 | -2.6
UTP23 (GeneID 84294) | 2 | -1.99 | 42.2 | -2
UTP23 (GeneID 84294) | 3 | -1.42 | 53.5 | -1.05
BLOC1S4 (GeneID 55330) | 1 | 0.392 | 89.7 | 0.335
BLOC1S4 (GeneID 55330) | 2 | 0.436 | 90.6 | 0.927
BLOC1S4 (GeneID 55330) | 3 | -0.473 | 72.5 | -0.648
UPK2 (GeneID 7379) | 1 | 0.264 | 87.1 | -0.593
UPK2 (GeneID 7379) | 2 | 0.0285 | 82.5 | 0.313
UPK2 (GeneID 7379) | 3 | -0.0429 | 81 | 0.0247
HGH1 (GeneID 51236) | 1 | 0.541 | 92.7 | 1
HGH1 (GeneID 51236) | 2 | 0.968 | 101 | 1.34
HGH1 (GeneID 51236) | 3 | 2.52 | 132 | 3.07
ADIG (GeneID 149685) | 1 | 0.089 | 83.7 | 0.312
ADIG (GeneID 149685) | 2 | -1.05 | 61 | -0.401
ADIG (GeneID 149685) | 3 | -0.537 | 71.2 | -0.292
ZNF280B (GeneID 140883) | 1 | 1.14 | 105 | 0.756
ZNF280B (GeneID 140883) | 2 | 1.3 | 108 | 1.04
ZNF280B (GeneID 140883) | 3 | -0.54 | 71.2 | -0.782
VWA7 (GeneID 80737) | 1 | 0.912 | 100 | 1.01
VWA7 (GeneID 80737) | 2 | -0.362 | 74.7 | -0.597
VWA7 (GeneID 80737) | 3 | 2 | 122 | 1.75
PKD1 (GeneID 5310) | 1 | 1.48 | 111 | 1.6
PKD1 (GeneID 5310) | 2 | -0.885 | 64.3 | -1.95
PKD1 (GeneID 5310) | 3 | 0.437 | 90.6 | 0.617
GTF3C1 (GeneID 2975) | 1 | -1.31 | 55.9 | -0.896
GTF3C1 (GeneID 2975) | 2 | -1.48 | 52.4 | -1.73
GTF3C1 (GeneID 2975) | 3 | 0.949 | 101 | 0.973
H2AC21 (GeneID 317772) | 1 | 0.475 | 91.3 | 1.18
H2AC21 (GeneID 317772) | 2 | -0.169 | 78.5 | -0.0204
H2AC21 (GeneID 317772) | 3 | 0.609 | 94 | -0.0243
STARD9 (GeneID 57519) | 1 | -2.34 | 35.3 | -2.44
STARD9 (GeneID 57519) | 2 | 1.54 | 113 | 1.7
STARD9 (GeneID 57519) | 3 | 0.5 | 91.8 | 0.359
SEC13 (GeneID 6396) | 1 | 1.17 | 105 | 0.757
SEC13 (GeneID 6396) | 2 | -1.3 | 56 | -0.907
SEC13 (GeneID 6396) | 3 | -0.214 | 77.6 | 0.0219
